Reference: patent US20180194762A1 (Pharmacyclics LLC, priority 2017, published 2018)
The structures given here were assigned with low confidence; some may be wrong.

Sequences of proteins named here, by UniProt entry; tags and fusion partners are left off.
UniProt Q06187, whole entry: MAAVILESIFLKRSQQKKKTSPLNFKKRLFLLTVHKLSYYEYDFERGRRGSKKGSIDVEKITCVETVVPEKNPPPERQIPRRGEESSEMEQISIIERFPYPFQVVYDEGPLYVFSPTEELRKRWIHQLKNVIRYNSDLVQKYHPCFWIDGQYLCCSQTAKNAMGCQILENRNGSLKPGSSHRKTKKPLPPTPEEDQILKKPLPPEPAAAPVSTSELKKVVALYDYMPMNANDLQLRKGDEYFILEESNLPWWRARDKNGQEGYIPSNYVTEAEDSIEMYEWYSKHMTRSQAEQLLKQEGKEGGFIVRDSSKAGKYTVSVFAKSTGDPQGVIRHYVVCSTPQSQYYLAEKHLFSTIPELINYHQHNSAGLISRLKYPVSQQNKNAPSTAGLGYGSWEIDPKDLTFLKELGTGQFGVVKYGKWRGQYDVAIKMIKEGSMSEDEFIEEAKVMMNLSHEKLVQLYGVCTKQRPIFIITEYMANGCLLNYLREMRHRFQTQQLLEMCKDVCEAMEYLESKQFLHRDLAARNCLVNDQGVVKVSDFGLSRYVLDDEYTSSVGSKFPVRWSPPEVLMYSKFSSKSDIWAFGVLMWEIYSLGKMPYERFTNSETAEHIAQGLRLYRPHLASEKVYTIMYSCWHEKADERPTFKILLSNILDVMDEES
UniProt P42680, whole entry: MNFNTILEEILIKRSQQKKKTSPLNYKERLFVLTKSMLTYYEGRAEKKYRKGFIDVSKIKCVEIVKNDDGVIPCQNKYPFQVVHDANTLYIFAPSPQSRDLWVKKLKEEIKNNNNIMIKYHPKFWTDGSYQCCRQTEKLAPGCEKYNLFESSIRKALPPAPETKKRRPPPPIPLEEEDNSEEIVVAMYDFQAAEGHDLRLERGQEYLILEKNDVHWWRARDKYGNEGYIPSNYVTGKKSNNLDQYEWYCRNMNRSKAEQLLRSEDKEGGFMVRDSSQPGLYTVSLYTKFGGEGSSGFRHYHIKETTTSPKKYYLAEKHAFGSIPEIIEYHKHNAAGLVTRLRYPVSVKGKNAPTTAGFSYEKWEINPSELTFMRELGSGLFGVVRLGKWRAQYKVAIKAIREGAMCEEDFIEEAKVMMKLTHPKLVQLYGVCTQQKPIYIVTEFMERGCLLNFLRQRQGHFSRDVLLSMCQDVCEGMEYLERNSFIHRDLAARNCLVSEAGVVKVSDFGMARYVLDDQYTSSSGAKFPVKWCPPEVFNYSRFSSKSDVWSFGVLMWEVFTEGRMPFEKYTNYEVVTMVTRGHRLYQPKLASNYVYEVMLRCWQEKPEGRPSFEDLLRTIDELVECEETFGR
UniProt P51813, whole entry: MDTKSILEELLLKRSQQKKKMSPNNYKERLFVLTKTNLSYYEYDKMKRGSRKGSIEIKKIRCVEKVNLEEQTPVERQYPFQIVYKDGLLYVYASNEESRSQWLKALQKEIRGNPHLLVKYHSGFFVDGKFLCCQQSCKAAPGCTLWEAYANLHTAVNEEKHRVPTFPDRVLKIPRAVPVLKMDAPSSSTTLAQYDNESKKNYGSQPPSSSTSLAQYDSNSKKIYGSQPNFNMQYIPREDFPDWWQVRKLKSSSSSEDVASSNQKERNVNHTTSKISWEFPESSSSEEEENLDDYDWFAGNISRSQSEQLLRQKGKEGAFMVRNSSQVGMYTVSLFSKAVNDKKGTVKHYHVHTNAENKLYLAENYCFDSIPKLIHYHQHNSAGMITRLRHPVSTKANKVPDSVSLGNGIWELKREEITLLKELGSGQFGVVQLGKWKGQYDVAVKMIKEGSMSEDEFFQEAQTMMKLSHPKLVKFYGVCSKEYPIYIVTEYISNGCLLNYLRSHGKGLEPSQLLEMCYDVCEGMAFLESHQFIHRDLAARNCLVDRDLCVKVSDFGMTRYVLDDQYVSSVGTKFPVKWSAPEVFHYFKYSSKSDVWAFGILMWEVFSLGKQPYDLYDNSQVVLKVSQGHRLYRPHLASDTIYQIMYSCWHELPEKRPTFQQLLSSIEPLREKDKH

Tests used:
Assay type in all cases: biochemical
Btk = Btk (Homo sapiens, UniProt Q06187); assay: Btk in vitro inhibitory activity (one of Method A TR-FRET, Method B electrophoretic mobility shift, Method C radiometric filter binding); details: read-out: Btk-WT IC50; wild-type Btk
Experimental: Example 62a: Btk In Vitro Inhibitory Activity (Method A)
Btk kinase activity is determined using a time-resolved fluorescence resonance energy transfer (TR-FRET) methodology. Measurements are performed in a reaction volume of 50 μL using 96-well assay plates. Kinase enzyme, inhibitor, ATP (at the Km for the kinase), and 1 μM peptide substrate (Biotin-AVLESEEELYSSARQ-NH2) are incubated in a reaction buffer composed of 20 mM Tris, 50 mM NaCl, MgCl2 (5-25 mM depending on the kinase), MnCl2 (0-10 mM), 1 mM DTT, 0.1 mM EDTA, 0.01% bovine serum albumin, 0.005% Tween-20, and 10% DMSO at pH 7.4 for one hour. […] The TR-FRET signal is measured on a multimode plate reader with an excitation wavelength (λEx) of 330 nm and detection wavelengths (λEm) of 615 and 665 nm. Activity is determined by the ratio of the fluorescence at 665 nm to that at 615 nm. For each compound, enzyme activity is measured at various concentrations of compound. Negative control reactions are performed in the absence of inhibitor in replicates of six, and two no-enzyme controls are used to determine baseline fluorescence levels. […]
Kinase activity is measured in vitro using electrophoretic mobility shift assay. […] The terminated reactions are analyzed using a 12 channel LabChip® 3000 microfluidic detection instrument (Caliper Life Sciences). […] As substrate and product peptides are separated, two peaks of fluorescence are observed. […]

TEC = TEC (Homo sapiens, UniProt P42680); assay: Inhibition of a panel of kinases (in vitro HotSpot kinase assay, 33P-ATP, 1 μM ATP); details: read-out: TEC IC50
Experimental: (§1) Example 63: Inhibition of a Panel of Kinases The degree of inhibition of a panel of kinases is determined using the in vitro HotSpot kinase assay (purified enzymes, ^33P-ATP, an appropriate substrate and 1 μM ATP).

panel of kinases = panel of kinases (Homo sapiens, UniProt P51813); assay: Inhibition of a panel of kinases (in vitro HotSpot kinase assay, 33P-ATP, 1 μM ATP), other kinases; details: read-out: BMX-WT IC50, BMX wild-type
Experimental: as §1

| IC50 (Btk) [nM] | IC50 (TEC) [nM] | IC50 (panel of kinases) [nM] | Compound |
| --- | --- | --- | --- |
| 857 | 4370 | 346 | C=CC(=O)N1CC[C@@H](Nc2n[nH]c3nccc(-c4ccc(C(=O)NCc5noc(C(C)(C)C)n5)c(F)c4)c23)C1 |
| 98.6 | 1610 | 576 | N[C@@H]1CCN(c2n[nH]c3nccc(-c4ccc(CNC(=O)c5nc6ccccc6o5)c(F)c4)c23)C1 |
